Results deposited as PubChem BioAssay AID1259254 (NCATS, 2017).

Assay: 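Gene knock-downs that lead to re-replication, shown by excess G2 DNA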 (primary screen)
System: human HCT116 colorectal cancer cells
Reagent: single siRNA against human genes
Time to read-out: 3 days
Read-out: 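Imaged Hoechst DNA stain sorts each cell into a cycle phase by DNA amount; per plate, G2 fraction set to 0% for non-targeting and 100% for GMNN siRNA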
Reading the numbers: G2 robust z-score: higher = more G2 cells, more excess DNA replication
Active means: 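Active siRNAs have a G2 robust z of 5 or more median absolute deviations over the median, which in these data means about 38% or higher of GMNN control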
Shown is one part, drawn at random, of about 59,000 reagents. About 1,550 of all reagents (2.6%) were called active. 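G2 share is only a proxy for re-replication; each gene was hit by three separate siRNAs, and active genes were retested.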 Unmarked entries are inactive. The numbers tell different reagents against one gene apart. Not all columns of the deposit are shown. Not given: the amount of reagent.

gene | reagent no. | G2 robust z-score
HSFY1P1 (HSFY1 pseudogene 1) | 1 | -0.993
HSFY1P1 (HSFY1 pseudogene 1) | 2 | 1.07
HSFY1P1 (HSFY1 pseudogene 1) | 3 | 2.88
CENPVL1 (centromere protein V like 1) | 1 | -0.65
CENPVL1 (centromere protein V like 1) | 2 | -0.873
CENPVL1 (centromere protein V like 1) | 3 | 1.21
CXCL8 (C-X-C motif chemokine ligand 8) | 1 | -1.32
CXCL8 (C-X-C motif chemokine ligand 8) | 2 | 4.58
CXCL8 (C-X-C motif chemokine ligand 8) | 3 | 0.763
FABP5P9 (fatty acid binding protein 5 pseudogene 9) | 1 | -0.367
FABP5P9 (fatty acid binding protein 5 pseudogene 9) | 2 | -1.04
FABP5P9 (fatty acid binding protein 5 pseudogene 9) | 3 | 0.136
C7orf57 (chromosome 7 open reading frame 57) | 1 | 0.0621
C7orf57 (chromosome 7 open reading frame 57) | 2 | -0.425
C7orf57 (chromosome 7 open reading frame 57) | 3 | -0.0372

Continued (3 carried over from the part before).
gene | reagent no. | G2 robust z-score
C7orf57 (chromosome 7 open reading frame 57) | 1 | 0.0621
C7orf57 (chromosome 7 open reading frame 57) | 2 | -0.425
C7orf57 (chromosome 7 open reading frame 57) | 3 | -0.0372
TNKS2 (tankyrase 2) | 1 | 0.968
TNKS2 (tankyrase 2) | 2 | 0.00519
TNKS2 (tankyrase 2) | 3 | -0.198
AGL (amylo-alpha-1,6-glucosidase and 4-alpha-glucanotransferase) | 1 | -0.784
AGL (amylo-alpha-1,6-glucosidase and 4-alpha-glucanotransferase) | 2 | -0.6
AGL (amylo-alpha-1,6-glucosidase and 4-alpha-glucanotransferase) | 3 | -1.02
MS4A15 (membrane spanning 4-domains A15) | 1 | 4.26
MS4A15 (membrane spanning 4-domains A15) | 2 | 2.77
MS4A15 (membrane spanning 4-domains A15) | 3 | -1.04
SLC10A3 | 1 | 0.479
SLC10A3 | 2 | -0.255
SLC10A3 | 3 | 6.82 (active)
ABHD6 (abhydrolase domain containing 6, acylglycerol lipase) | 1 | -1.08
ABHD6 (abhydrolase domain containing 6, acylglycerol lipase) | 2 | -0.67
ABHD6 (abhydrolase domain containing 6, acylglycerol lipase) | 3 | 0.672
